Among the data in PubChem BioAssay AID328 (DTP/NCI, 2004) are survivor count and T/C values, retold here.

In this experiment the test system is BDF1 mice, P388 leukemia ip, median survival T/C. Description: NCI In Vivo Anticancer Drug Screen. Data for tumor model P388 Leukemia (intraperitoneal) in B6D2F1 (BDF1) mice. The conditions noted are these: T/C endpoint: median survival time, higher T/C = longer survival. The procedure, abridged:
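In tumour-bearing mice, survival after compound treatment is set against the vehicle group and given as a quotient.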

Setting [1] is: dose: 100.0 mg/kg/injection, schedule: Q01DX009 (ip), vehicle: saline with Tween-80.
The mark [2] stands for this setting: dose: 200.0 mg/kg/injection, schedule: Q01DX009 (ip), vehicle: saline with Tween-80.
The mark [3] stands for this setting: dose: 50.0 mg/kg/injection, schedule: Q01DX009 (ip), vehicle: Klucel (hydroxypropylcellulose) (HPC).
The mark [4] stands for this setting: dose: 400.0 mg/kg/injection, schedule: Q01DX009 (ip), vehicle: saline with Tween-80.
Where [5] appears, read: dose: 200.0 mg/kg/injection, schedule: Q01DX009 (ip), vehicle: Klucel (hydroxypropylcellulose) (HPC).
Where [6] appears, read: dose: 100.0 mg/kg/injection, schedule: Q04DX003 (ip), vehicle: Klucel (hydroxypropylcellulose) (HPC).
[7] abbreviates: dose: 200.0 mg/kg/injection, schedule: Q04DX003 (ip), vehicle: Klucel (hydroxypropylcellulose) (HPC).
Setting [8] is: dose: 50.0 mg/kg/injection, schedule: Q01DX009 (ip), vehicle: saline.
Where [9] appears, read: dose: 100.0 mg/kg/injection, schedule: Q01DX009 (ip), vehicle: Klucel (hydroxypropylcellulose) (HPC).

Structures are written as SMILES. The list shows only some results of the screen, not a fair sample: it gathers tests that were run many times, whatever their T/C, doses with no T/C, and many T/C values between a quarter and a half above the control. Other doses and runs of a compound stand elsewhere. T/C gives the treated animals as a percentage of the vehicle group. Some entries give survivors of the animals treated and no T/C: the source files T/C as zero there, which appears to mark a toxic dose or a test without result, not a measured value. Some doses without a T/C left all or most animals alive at the check, yet need not have been tolerated: the source hardly ever lists a survival T/C far under the control, and the zero likely stands for such cases as well. Counts of survivors are from the toxicity check (mostly the fifth day) where no day follows; animals may have died later. Schedules are NCI's codes, taken here to give the interval after Q, in days (D) or hours (H), and the number of doses after X. Some entries were tested several times; the results are listed from low to high. Where survival is the endpoint, the PubChem record calls one and a half times the control and up active, and a quarter to a half above the control has no call in these data; cut-offs in other NCI protocols can differ. Some T/C values carry the count of animals alive at the toxicity check (mostly the fifth day); without a count, all were alive then.

For `CC(=O)c1ccc(C(=O)CC(O)(C(F)(F)F)C(F)(F)F)cc1`, the survivor count runs as follows: (dose: 200.0 mg/kg/injection, schedule: Q01DX009 (ip), vehicle: other) 5 of 6; (dose: 200.0 mg/kg/injection, schedule: Q04DX003 (ip), vehicle: other) 3 of 6.

As to `NCc1cc(=O)[nH]o1`, the survivor count (dose: 10.0 mg/kg/injection, schedule: Q01DX005 (ip), vehicle: saline) was 3 of 6.

Turning to `O=C(/C=C\c1ccnc2ccccc12)c1ccc([N+](=O)[O-])cc1`, where the note is “dose: 50.0 mg/kg/injection, schedule: Q04DX003 (ip), vehicle: water”, the survivor count is 6 of 6.

As to `Cc1ncc([N+](=O)[O-])n1CCSC(Cl)(Cl)Cl`, the T/C (dose: 100.0 mg/kg/injection, schedule: Q04DX003 (ip), vehicle: saline) is 138 % of control.

For `CCCCOCN(COCCCC)C(C)Cc1ccccc1` (configuration not stated), the T/C is, setting by setting: under setting [1], 144 % of control; under setting [2], 141 % of control.

Consider `CCCCCCOP(=O)(N1CC1C)N1CC1C` (configuration not stated), for which the T/C by setting is: (dose: 66.0 mg/kg/injection, schedule: Q01DX009 (ip), vehicle: saline) 143 % of control; (dose: 150.0 mg/kg/injection, schedule: Q01DX009 (ip), vehicle: saline) 147 % of control [5 of 6 alive].

For the compound `Cc1nc(C(=O)O)c(=O)[nH]c1C`, the survivor count (dose: 400.0 mg/kg/injection, schedule: Q01DX009 (ip), vehicle: water) was 0 of 6 and the survivor count (dose: 400.0 mg/kg/injection, schedule: Q04DX003 (ip), vehicle: water) was 0 of 6.

Take `CN(C)[C@@H]1C(=O)C(C(=O)NCN2CCN(C(=N)N=C(N)N)CC2)=C(O)[C@@]2(O)C(=O)C3=C(O)c4c(O)cccc4[C@@](C)(O)[C@H]3C[C@@H]12`: where the note is “dose: 0.5 mg/kg/injection, schedule: Q04DX003 (ip), vehicle: saline”, the T/C was 132 % of control.

With `C[N+](C)(C)N=C1CCC2(CC1)c1ccccc1-c1ccccc12`, the survivor count (dose: 80.0 mg/kg/injection, schedule: Q01DX009 (ip), vehicle: saline) is on record as 1 of 6; the survivor count (dose: 82.5 mg/kg/injection, schedule: Q04DX003 (ip), vehicle: saline) is given as 3 of 6; the survivor count (dose: 165.0 mg/kg/injection, schedule: Q04DX003 (ip), vehicle: saline) is listed as 0 of 6.

As for `CC[n+]1ccc(Nc2ccc(NC(=O)c3ccc(Nc4cc[n+](CC)c5ccc([N+](=O)[O-])cc45)cc3)cc2)cc1`, the T/C is, setting by setting: (dose: 2.6 mg/kg/injection, schedule: Q04DX003 (ip), vehicle: saline) 140 % of control; (dose: 9.0 mg/kg/injection, schedule: Q04DX003 (ip), vehicle: saline) 145 % of control.

Turning to `NOCc1ccsn1`, where the note is “dose: 100.0 mg/kg/injection, schedule: Q04DX003 (ip), vehicle: other”, the survivor count was 6 of 6.

In the case of `CC(C)CCNc1ncnc2[nH]ncc12`, the survivor count runs as follows: (dose: 12.5 mg/kg/injection, schedule: Q01DX009 (ip), vehicle: Klucel (hydroxypropylcellulose) (HPC)) 6 of 6; under setting [3], 4 of 6; under setting [1], 2 of 6; (dose: 110.0 mg/kg/injection, schedule: Q04DX003 (ip), vehicle: Klucel (hydroxypropylcellulose) (HPC)) 2 of 6; (dose: 170.0 mg/kg/injection, schedule: Q04DX003 (ip), vehicle: Klucel (hydroxypropylcellulose) (HPC)) 0 of 6; (dose: 255.0 mg/kg/injection, schedule: Q04DX003 (ip), vehicle: Klucel (hydroxypropylcellulose) (HPC)) 0 of 6.

Regarding `CCOC(=O)CC(COC)C(C(=O)OCC)C(=O)OCC` (configuration not stated), for the setting “dose: 400.0 mg/kg/injection, schedule: Q01DX009 (ip), vehicle: other”, the survivor count was 6 of 6.

Turning to `N=P(N[P+](N)(c1ccccc1)c1ccccc1)(c1ccccc1)c1ccccc1`, the T/C (dose: 12.5 mg/kg/injection, schedule: Q01DX001 (ip), vehicle: saline) was 132 % of control. For the same compound, where the note is “dose: 50.0 mg/kg/injection, schedule: Q01DX001 (ip), vehicle: saline”, the survivor count is reported as 1 of 6.

For the compound `CCN(CC)CCC(=O)c1ccccc1`, the survivor count by setting is: under setting [1], 3 of 6; under setting [2], 0 of 6.

With `CCCCS(=O)(=O)OCCCCOS(=O)(=O)CCCC`, the T/C (dose: 400.0 mg/kg/injection, schedule: Q04DX003 (ip), vehicle: saline with Tween-80) is 136 % of control.

`O=C(O)c1ccc(N2C(=O)c3ccccc3C2=O)cc1[N+](=O)[O-]`: the survivor count (dose: 400.0 mg/kg/injection, schedule: Q01DX009 (ip), vehicle: saline) is on record as 4 of 6.

As for `CCCCCCC(N)C(C)O` (configuration not stated), the survivor count was 5 of 6 under setting [1] and 0 of 6 under setting [2].

With `C=CCOC(=O)c1ccccc1N`, under setting [4], the survivor count is 0 of 1.

As to `O=C(NN=C1CCCCC1)c1ccccc1`, the survivor count under setting [5] was 2 of 6 and the survivor count (dose: 335.0 mg/kg/injection, schedule: Q04DX003 (ip), vehicle: Klucel (hydroxypropylcellulose) (HPC)) was 2 of 6.

Regarding `CC(C)(O)c1cnc(OCc2ccccc2)nc1OCc1ccccc1`, the survivor count is on record as 6 of 6 under setting [6]; 6 of 6 under setting [7]; 6 of 6 (dose: 400.0 mg/kg/injection, schedule: Q04DX003 (ip), vehicle: Klucel (hydroxypropylcellulose) (HPC)).

For the compound `Cc1ccc2scc3c4ccccc4nc-3c2c1`, the survivor count was 3 of 6 (dose: 25.0 mg/kg/injection, schedule: Q01DX009 (ip), vehicle: Klucel (hydroxypropylcellulose) (HPC)); 3 of 6 under setting [3]; 4 of 6 under setting [8]; 0 of 6 (dose: 75.0 mg/kg/injection, schedule: Q01DX009 (ip), vehicle: Klucel (hydroxypropylcellulose) (HPC)); 0 of 6 (dose: 100.0 mg/kg/injection, schedule: Q01DX009 (ip), vehicle: saline); 4 of 6 (dose: 110.0 mg/kg/injection, schedule: Q01DX009 (ip), vehicle: saline). In addition, the survivor count (dose: 112.0 mg/kg/injection, schedule: Q01DX009 (ip), vehicle: Klucel (hydroxypropylcellulose) (HPC)) is given as 0 of 6 and the survivor count (dose: 225.0 mg/kg/injection, schedule: Q04DX003 (ip), vehicle: saline) is listed as 2 of 6. Besides, under setting [8], the T/C is 92, 122 [5 of 6 alive], 127 % of control.

Regarding `CC(C)n1cnc2c(Cl)ncnc21`, the survivor count is 3 of 6 under setting [2] and 4 of 6 under setting [4].

Take `O=C[C@@H](CO)O[C@H](C=O)n1cnc2c(=O)[nH]cnc21`: the T/C (dose: 108.0 mg/kg/injection, schedule: Q04DX003 (ip), vehicle: water) was 147 % of control. Also, where the note is “dose: 500.0 mg/kg/injection, schedule: Q04DX003 (ip), vehicle: water”, the survivor count is 1 of 8 and 2 of 8.

For `Cc1c2c(ccc3ccccc32)c[n+]2ccccc12`, the survivor count by setting is: (dose: 25.0 mg/kg/injection, schedule: Q01DX009 (ip), vehicle: saline) 1 of 6; (dose: 50.0 mg/kg/injection, schedule: Q04DX003 (ip), vehicle: saline) 0 of 6.

Turning to `O=C(Nc1cccc(Cl)c1)c1cc(N=Nc2ccc([N+](=O)[O-])cc2Cl)ccc1O`, the T/C by setting is: (dose: 90.0 mg/kg/injection, schedule: Q04DX003 (ip), vehicle: Klucel (hydroxypropylcellulose) (HPC)) 126 % of control; under setting [9], 125 % of control; under setting [6], 138 % of control; under setting [7], 126 % of control. Besides, the survivor count reads like this: under setting [5], 2 of 6; (dose: 300.0 mg/kg/injection, schedule: Q04DX003 (ip), vehicle: Klucel (hydroxypropylcellulose) (HPC)) 2 of 6.

`C[C@]12CC[C@H]3C(=CCc4cc(O)ccc43)[C@@H]1CCC2=O`: the survivor count under setting [9] was 6 of 6 and the survivor count (dose: 400.0 mg/kg/injection, schedule: Q01DX009 (ip), vehicle: Klucel (hydroxypropylcellulose) (HPC)) was 6 of 6.
